Laboratory results from patent US12048705B2, “Immunoablative therapies” (AVM Biotechnology, LLC, priority 2018, dated 2024).

Test system: peripheral blood lymphocytes
Assay: Repeat of Hinrichs dexamethasone dosing, peripheral blood lymphocytes by flow cytometry
Assay type: in vivo
Conditions: same dosing; vehicle 1153
From the text: Prior studies into the use of steroids to precondition a patient prior to ACT had shown this approach to be ineffective. […] In contrast, Hinrichs discloses that pretreatment with radiation did enhance ACT tumor killing. […] However, while Hinrichs reported 99% lymphodepletion, no enhancement of ACT tumor killing was observed. In contrast, Hinrichs observed that radiation does enhance ACT tumor killing. […] In contrast, CD3+T lymphocytes were reduced from 3370 to 2441 live events, only a non-significant 33% reduction. CD3+CD4+T lymphocytes were reduced from 1779 to 902 live events, only a non-significant 50% reduction. CD3+CD8_ T lymphocytes were reduced from 1318 to 1277 live events, only a non-significant 3% reduction. CD3+CD4+CD25+FoxP3+ Tregs were reduced from 198 to 70 live events, only a non-significant 65% reduction. And natural killer (NK) cells were reduced from 1153 to 958 live events, only a non-significant 17% reduction.

**Q.** With `C[C@@H]1C[C@H]2[C@@H]3CCC4=CC(=O)C=C[C@]4(C)[C@@]3(F)[C@@H](O)C[C@]2(C)[C@@]1(O)C(=O)CO` [dexamethasone] as the compound, how does the “natural killer (NK) cells, live events” value read?
**A.** The value was 958 live events.
